According to article PMC9569902:
Results are given in words; binding and its absence hold for the method and conditions named. In cells and extracts the contact can be indirect. Some results given as binding are weak or reduced against the parent protein; the word gives no strength.

Chains of the proteins cited; added tags and fusions are not shown.
UniProt P01106: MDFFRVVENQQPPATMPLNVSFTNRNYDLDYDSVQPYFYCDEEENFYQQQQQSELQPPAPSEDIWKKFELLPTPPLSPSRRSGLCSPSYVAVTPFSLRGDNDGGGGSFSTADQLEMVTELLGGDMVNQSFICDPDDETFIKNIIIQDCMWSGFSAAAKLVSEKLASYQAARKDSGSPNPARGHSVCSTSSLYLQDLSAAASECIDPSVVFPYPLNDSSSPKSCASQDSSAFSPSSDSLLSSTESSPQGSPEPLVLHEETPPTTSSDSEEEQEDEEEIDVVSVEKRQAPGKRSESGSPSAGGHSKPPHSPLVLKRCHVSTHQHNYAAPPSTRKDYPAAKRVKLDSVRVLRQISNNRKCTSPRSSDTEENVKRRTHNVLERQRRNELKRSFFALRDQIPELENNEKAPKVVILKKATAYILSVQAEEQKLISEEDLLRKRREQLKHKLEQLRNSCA

Target: c-MYC (UniProt P01106)
Assay: co-IP; IP to detect the interaction between c-MYC and FBXO32; cells, precipitating antibody and buffer not stated for this experiment

binding: binds
B1: F-Box Protein 32 (FBXO32) (protein, UniProt Q969P5 1-355)
chain: MPFLGQDWRSPGQNWVKTADGWKRFLDEKSGSFVSDLSSYCNKEVYNKENLFNSLNYDVAAKKRKKDMLNSKTKTQYFHQEKWIYVHKGSTKERHGYCTLGEAFNRLDFSTAILDSRRFNYVVRLLELIAKSQLTSLSGIAQKNFMNILEKVVLKVLEDQQNIRLIRELLQTLYTSLCTLVQRVGKSVLVGNINMWVYRMETILHWQQQLNNIQITRPAFKGLTFTDLPLCLQLNIMQRLSDGRDLVSLGQAAPDLHVLSEDRLLWKKLCQYHFSERQIRKRLILSDKGQLDWKKMYFKLVRCYPRKEQYGDTLQLCKHCHILSWKGTDHPCTANNPESCSVSLSPQDFINLFKF
